In all, about 390,000 compounds went through this assay and about 610 (0.16%) were called active. Inconclusive results, whose numbers are uncertain, are shown with a selection of clear calls. The call rests on the fitted dose curve; in most records, active means well fitted inhibition curve with a large enough effect; inconclusive means small, poorly fitted or top-dose-only effect, or effect the other way, or another doubt; inactive means no such curve, though single readings can be large or run the other way. A potency beside an inconclusive call is a rough fit, not a confirmed value.
experiment: Nrf2 qHTS screen for inhibitors: counterscreen for cytotoxicity; conditions: A549 ARE-Fluc cells, CellTiter-Fluor viability, 18-24 h; activity change, negative = cytotoxicity: at 46 µM (top of the series)
Procedure, shortened: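 A549 ARE_Fluc cells in 5% FBS OPTI-MEM were exposed to compounds in concentration-response for 18-24 h at 37 deg C. Viability was read by CellTiter-Fluor fluorescence (Ex 405/Em 525) after 30 min, before the luciferase read.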
On the % scale 0 is the no-effect control and ±100 the full control effect; potency means the concentration at half of the fitted maximal effect.

Structure (SMILES)	Potency	activity change, negative = cytotoxicity
Fc1ccccc1OCCSc1nc2ccccc2o1	inconclusive: 16.4 µM [activator, partial curve, poor fit]	–
Cc1nc(N2CCN(C(=O)c3cccs3)CC2)c2c3c(sc2n1)CCCC3	inconclusive: 25.9 µM [falling, partial curve, poor fit]	–
O=c1oc(-c2cccs2)nc2ccc(Br)cc12	–	inactive: 11.5% [at 1.84 µM]
CCCSCCCNC(=O)C1CCCN(c2nn3cc(-c4ccc(OC)cc4)nc3s2)C1 (centres undefined)	inconclusive: 18.4 µM [falling, partial curve, poor fit]	–
Cc1c(Cc2ccccc2)sc(NC(=O)/C=C/c2cccc3ccccc23)c1C(N)=O	inactive	–
N#CC(C#N)=C(N)/C(C#N)=C/c1cc(O)c(O)c(O)c1	inconclusive: 20.6 µM [falling, single point]	–
CCCCN(CC)CCNC(=O)CN1C(=O)COc2ccc(S(=O)(=O)N3CCCC3)cc21	inconclusive: 25.9 µM [falling, partial curve, poor fit]	–
Cc1cccc(OCCSc2nc(N)cc(N)n2)c1	inactive	–
Nc1c(Cl)cc(C2=NCCn3nc4cc(C(F)(F)F)ccc4c32)cc1Cl	inactive	–
O=C(CCNC(=O)c1ccccc1Cl)Nc1cccc(S(=O)(=O)N2CCCCC2)c1	inactive	–
CC(C)(C)c1cc(CP(=O)(c2ccccc2)c2ccccc2)cc(C(C)(C)C)c1O	inconclusive: 29.1 µM [falling, single point]	–
COc1ccc(C2c3c(ncn(CCN4CCOCC4)c3=N)Oc3ccc4ccccc4c32)cc1OC (centres undefined)	inconclusive: 25.9 µM [falling, single point]	–
CCOC(=O)c1ccc(NC(=O)/C(C#N)=C/c2ccc(OC)cc2)cc1	inactive	–
Cc1nn(Cc2c(Cl)cccc2Cl)c(C)c1NC(=O)CCCn1nc([N+](=O)[O-])c(Cl)c1C	inconclusive: 16.4 µM [falling, single point]	–
CN(C)/C=C(\C#N)C(=O)N/N=C/c1ccc(Cl)cc1	inconclusive: 29.1 µM [activator, single point]	–
FC(F)(F)c1ccc(NCc2ccccn2)nc1	inactive	–
O=C(CN(Cc1ccccc1)S(=O)(=O)c1ccccc1)N/N=C/c1ccc2c(c1)OCO2	inconclusive: 20.6 µM [falling, partial curve, poor fit]	–
CCOc1ccc(C(=O)N/N=C/c2ccc(-c3ccc(S(=O)(=O)Nc4ncccn4)cc3)o2)cc1	inactive	–
COc1ccc(COc2ccsc2C(=O)Nc2ccc(Cl)cc2)cc1	inconclusive: 29.1 µM [falling, single point]	–

Record cards, from the list above:
Cc1nc(N2CCN(C(=O)c3cccs3)CC2)c2c3c(sc2n1)CCCC3 is entered as Potency: inconclusive: 25.9 µM [falling, partial curve, poor fit]
Cc1c(Cc2ccccc2)sc(NC(=O)/C=C/c2cccc3ccccc23)c1C(N)=O is entered as Potency: inactive

Source: PubChem BioAssay AID504648 (National Center for Advancing Translational Sciences (NCATS), 2011)
